Results: the supplement of paper PMC8728848
The other results are listed elsewhere or left out.

Assays:
Test in all cases: glycan array binding signal (z-score within array); higher = stronger binding
Conditions in all cases: glycan notation: IUPAC condensed, linker removed
Neu5Ac(a2-8)Neu5Ac = target: Neu5Ac(a2-8)Neu5Ac
Outline: (§1)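 Glycan array data were curated from 3228 arrays in the Consortium for Functional Glycomics database and kept only where the protein sequence was available. Glycan names were converted to IUPAC-condensed notation, and columns mapping to the same glycan were averaged. The binding signal is a within-array Z-score, averaged across arrays of the same protein sequence at different concentrations or buffers and across linkers. Negative Z-scores can be read as non-binding.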

[1] = target: Neu5Ac(a2-8)Neu5Ac(a2-3)Gal(b1-3)GalNAc(b1-4)[Neu5Ac(a2-3)]Gal(b1-4)Glc
Outline: as §1

[2] = target: Neu5Ac(a2-8)Neu5Ac(a2-3)Gal(b1-3)GalNAc(b1-4)[Neu5Ac(a2-8)Neu5Ac(a2-3)]Gal(b1-4)Glc
Outline: as §1

[3] = target: Neu5Ac(a2-8)Neu5Ac(a2-3)Gal(b1-4)Glc
Outline: as §1

[4] = target: Neu5Ac(a2-8)Neu5Ac(a2-3)Gal(b1-4)GlcNAc
Outline: as §1

[5] = target: Neu5Ac(a2-8)Neu5Ac(a2-3)[Gal(b1-3)GalNAc(b1-4)]Gal(b1-4)Glc
Outline: as §1

[6] = target: Neu5Ac(a2-8)Neu5Ac(a2-3)[GalNAc(b1-4)]Gal(b1-4)Glc
Outline: as §1

[7] = target: Neu5Ac(a2-8)Neu5Ac(a2-8)Neu5Ac
Outline: as §1

[8] = target: Neu5Ac(a2-8)Neu5Ac(a2-8)Neu5Ac(a2-3)Gal(b1-4)Glc
Outline: as §1

[9] = target: Neu5Ac(a2-8)Neu5Ac(a2-8)Neu5Ac(a2-3)[Gal(b1-3)GalNAc(b1-4)]Gal(b1-4)Glc
Outline: as §1

[10] = target: Neu5Ac(a2-8)Neu5Ac(a2-8)Neu5Ac(a2-3)[GalNAc(b1-4)]Gal(b1-4)Glc
Outline: as §1

[11] = target: Neu5Ac(a2-8)Neu5Ac(a2-8)Neu5Ac(a2-8)Neu5Ac(a2-3)[GalNAc(b1-4)]Gal(b1-4)Glc
Outline: as §1

[12] = target: Neu5Ac(a2-8)Neu5Gc(a2-3)Gal(b1-4)GlcNAc
Outline: as §1

[13] = target: Neu5Ac(b2-6)Gal(b1-4)GlcNAc
Outline: as §1

Neu5Ac(b2-6)GalNAc = target: Neu5Ac(b2-6)GalNAc
Outline: as §1

[14] = target: Neu5Ac9Ac(a2-3)Gal(b1-3)GlcNAc
Outline: as §1

[15] = target: Neu5Ac9Ac(a2-3)Gal(b1-4)GlcNAc
Outline: as §1

[16] = target: Neu5Ac9Ac(a2-6)Gal(b1-4)GlcNAc
Outline: as §1

[17] = target: Neu5Gc(a2-3)Gal(b1-3)GlcNAc
Outline: as §1

[18] = target: Neu5Gc(a2-3)Gal(b1-3)[Fuc(a1-4)]GlcNAc
Outline: as §1

Neu5Gc(a2-3)Gal(b1-4)Glc = target: Neu5Gc(a2-3)Gal(b1-4)Glc
Outline: as §1

[19] = target: Neu5Gc(a2-3)Gal(b1-4)GlcNAc
Outline: as §1

[20] = target: Neu5Gc(a2-3)Gal(b1-4)GlcNAc(b1-3)Gal(b1-4)GlcNAc(b1-2)Man(a1-3)[Neu5Gc(a2-3)Gal(b1-4)GlcNAc(b1-3)Gal(b1-4)GlcNAc(b1-2)Man(a1-6)]Man(b1-4)GlcNAc(b1-4)GlcNAc
Outline: as §1

[21] = target: Neu5Gc(a2-3)Gal(b1-4)[Fuc(a1-3)]GlcNAc
Outline: as §1

[22] = target: Neu5Gc(a2-6)Gal(b1-4)GlcNAc
Outline: as §1

Neu5Gc(a2-6)GalNAc = target: Neu5Gc(a2-6)GalNAc
Outline: as §1

[23] = target: Neu5Gc(a2-8)Neu5Ac(a2-3)Gal(b1-4)GlcNAc
Outline: as §1

[24] = target: Neu5Gc(a2-8)Neu5Gc(a2-3)Gal(b1-4)GlcNAc
Outline: as §1

[25] = target: Neu5Gc(a2-8)Neu5Gc(a2-3)Gal(b1-4)GlcNAc(b1-3)Gal(b1-4)GlcNAc
Outline: as §1

[26] = target: Neu5Gc(a2-8)Neu5Gc(a2-6)Gal(b1-4)GlcNAc
Outline: as §1

[27] = target: Neu5Gc(b2-6)Gal(b1-4)GlcNAc
Outline: as §1

B1: Epa11 (Candida glabrata) (protein)
chain: MGSSHHHHHHSSGLVPRGSHMASSNAPNYPVGCSPSVGTQLTPGLSLEVYAYPMDGNNGYCWNATYKDPEFPRSGYLKNKLLGKADGVVGPLNFLAKNKDCSPKVDTLPAGFNFPQPITVTNFTMVLFGYLAPKQSGKYTFKLLADDLLLLNLGATNAFDCCNREATKNNLGEFLAYNLWPNQDKNVTVYLEKGVYYPLRLFFNNRDGGSQLDFSYYFNDSPAPLTDFSGMFFSVPDGAECPARI
glycan array binding signal (z-score) (Neu5Ac(a2-8)Neu5Ac): -0.002 | glycan array binding signal (z-score) [1]: 0.184 | glycan array binding signal (z-score) [2]: -0.127 | glycan array binding signal (z-score) [3]: -0.615 | glycan array binding signal (z-score) [4]: -0.677 | glycan array binding signal (z-score) [5]: 0.019 | glycan array binding signal (z-score) [6]: 0.267 | glycan array binding signal (z-score) [7]: -0.255 | glycan array binding signal (z-score) [8]: -0.019 | glycan array binding signal (z-score) [9]: -0.155 | glycan array binding signal (z-score) [10]: 1.3 | glycan array binding signal (z-score) [11]: -0.224 | glycan array binding signal (z-score) [12]: -0.419 | glycan array binding signal (z-score) [13]: 0.947 | glycan array binding signal (z-score) (Neu5Ac(b2-6)GalNAc): -0.375 | glycan array binding signal (z-score) [14]: -0.333 | glycan array binding signal (z-score) [15]: -0.173 | glycan array binding signal (z-score) [16]: -0.587 | glycan array binding signal (z-score) [17]: 0.029 | glycan array binding signal (z-score) [18]: 0.146 | glycan array binding signal (z-score) (Neu5Gc(a2-3)Gal(b1-4)Glc): 0.849 | glycan array binding signal (z-score) [19]: -0.644 | glycan array binding signal (z-score) [20]: -0.587 | glycan array binding signal (z-score) [21]: -0.055 | glycan array binding signal (z-score) [22]: -0.264 | glycan array binding signal (z-score) (Neu5Gc(a2-6)GalNAc): -0.604 | glycan array binding signal (z-score) [23]: 0.168 | glycan array binding signal (z-score) [24]: 0.024 | glycan array binding signal (z-score) [25]: -0.015 | glycan array binding signal (z-score) [26]: -0.614 | glycan array binding signal (z-score) [27]: -0.169
